These are yes or no findings as the source states them, for the method shown. In cells and extracts the contact can be indirect. Some results given as binding are weak or reduced against the parent protein; the word gives no strength.
Target: SicA-HA (S. Typhimurium) (UniProt P69066)
Test: co-IP

Amino acid sequences for entries named in this document (tags omitted).
UniProt P69066: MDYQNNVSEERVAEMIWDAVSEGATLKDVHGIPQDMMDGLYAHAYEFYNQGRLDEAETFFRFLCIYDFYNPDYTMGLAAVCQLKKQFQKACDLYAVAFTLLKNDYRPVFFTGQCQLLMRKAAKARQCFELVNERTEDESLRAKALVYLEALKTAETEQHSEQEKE
UniProt P0CL47: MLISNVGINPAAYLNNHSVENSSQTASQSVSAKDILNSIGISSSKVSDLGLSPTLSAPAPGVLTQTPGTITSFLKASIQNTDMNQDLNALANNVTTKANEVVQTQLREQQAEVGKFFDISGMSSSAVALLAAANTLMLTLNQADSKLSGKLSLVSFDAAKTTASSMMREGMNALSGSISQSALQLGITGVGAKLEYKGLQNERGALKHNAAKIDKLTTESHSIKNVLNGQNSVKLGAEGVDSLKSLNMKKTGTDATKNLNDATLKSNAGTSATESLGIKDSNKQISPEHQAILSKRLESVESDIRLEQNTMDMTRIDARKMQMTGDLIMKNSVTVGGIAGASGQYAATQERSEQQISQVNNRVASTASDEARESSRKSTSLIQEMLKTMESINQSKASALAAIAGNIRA

SipC-His6 (from UniProt P0CL47 1-409)
binding: binds

— article PMC9637222, “Autoinducer-2 and bile salts induce c-di-GMP synthesis to repress the T3SS via a T3SS chaperone” (Nature Communications, 2022)
